These are yes or no findings as the source states them, for the method shown. In cells and extracts the contact can be indirect. Some results given as binding are weak or reduced against the parent protein; the word gives no strength.

Protein sequences, listed by entry. Tags and fused reporters are not part of them. Lines headed by an entry give the natural chain unless they say otherwise; changes in a name come on top.
UniProt P45974: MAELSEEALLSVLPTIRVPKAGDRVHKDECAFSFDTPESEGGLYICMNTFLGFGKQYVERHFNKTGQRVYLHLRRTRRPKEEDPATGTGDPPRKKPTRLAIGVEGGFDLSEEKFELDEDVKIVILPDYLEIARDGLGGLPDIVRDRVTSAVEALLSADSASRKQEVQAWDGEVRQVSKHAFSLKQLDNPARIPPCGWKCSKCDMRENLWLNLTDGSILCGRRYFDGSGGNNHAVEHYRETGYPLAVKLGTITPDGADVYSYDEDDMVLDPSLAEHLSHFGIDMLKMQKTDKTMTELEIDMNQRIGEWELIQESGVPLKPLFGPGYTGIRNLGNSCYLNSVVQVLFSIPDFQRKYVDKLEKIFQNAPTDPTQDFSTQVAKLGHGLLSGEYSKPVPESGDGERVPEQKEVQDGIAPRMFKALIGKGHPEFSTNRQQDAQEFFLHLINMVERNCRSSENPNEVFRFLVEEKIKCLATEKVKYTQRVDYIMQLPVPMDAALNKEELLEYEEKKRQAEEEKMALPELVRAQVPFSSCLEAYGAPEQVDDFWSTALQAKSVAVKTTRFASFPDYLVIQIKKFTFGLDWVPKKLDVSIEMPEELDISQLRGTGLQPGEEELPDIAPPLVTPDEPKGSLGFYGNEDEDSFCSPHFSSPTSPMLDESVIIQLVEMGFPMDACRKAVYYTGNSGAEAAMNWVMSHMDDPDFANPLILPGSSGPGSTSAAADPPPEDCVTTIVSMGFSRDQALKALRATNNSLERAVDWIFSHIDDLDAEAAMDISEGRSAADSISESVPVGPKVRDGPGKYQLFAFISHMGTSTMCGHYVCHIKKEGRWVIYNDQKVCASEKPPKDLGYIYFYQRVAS
UniProt Q9Z120: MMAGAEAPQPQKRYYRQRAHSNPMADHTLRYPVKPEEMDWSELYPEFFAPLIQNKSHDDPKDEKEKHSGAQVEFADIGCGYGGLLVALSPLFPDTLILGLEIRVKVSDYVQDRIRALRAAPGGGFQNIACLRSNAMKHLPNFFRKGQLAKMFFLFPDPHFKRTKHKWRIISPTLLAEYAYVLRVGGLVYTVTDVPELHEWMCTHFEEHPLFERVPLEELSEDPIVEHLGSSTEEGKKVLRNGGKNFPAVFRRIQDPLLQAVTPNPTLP
UniProt Q9UBP6: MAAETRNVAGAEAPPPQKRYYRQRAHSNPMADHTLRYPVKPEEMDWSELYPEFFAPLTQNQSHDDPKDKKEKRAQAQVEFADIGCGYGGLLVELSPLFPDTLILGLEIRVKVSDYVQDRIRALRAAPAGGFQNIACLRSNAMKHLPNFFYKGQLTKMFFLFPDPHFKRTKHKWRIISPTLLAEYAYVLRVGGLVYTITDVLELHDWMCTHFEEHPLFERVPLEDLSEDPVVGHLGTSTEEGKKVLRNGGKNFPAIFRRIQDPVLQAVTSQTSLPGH

Common to all, as to experiment: co-IP
Assay [1] has as its target His-USP5, expressed in AC16 cells (UniProt P45974).
Assay [2] has as its target ubiquitin-specific peptidase 5 (USP5), human, endogenous in AC16 cardiomyocytes (human (endogenous in AC16)) (UniProt P45974).
Assay [3] has as its target USP5, unmutated, expressed in HEK293T cells (parent of the binding-site mutants of Fig. 8I-J) (UniProt P45974).
For assay [4], the target named is methyltransferase-like 1 (METTL1), mouse, endogenous in NMCM cells (mouse (endogenous in NMCM)) (UniProt Q9Z120).

With “methyltransferase-like 1 (METTL1), human, endogenous in AC16 cardiomyocytes (from UniProt Q9UBP6 1-276) (enzyme)”, the binding result in assay [1] and in assay [2] was “binds” throughout. Turning to “METTL1 in HEK293T cells (partner of the USP5 mutants, Fig. 8J) (from UniProt Q9UBP6 1-276) (enzyme)”, in assay [3], the binding result is “binds”.

B1: O-GlcNAc transferase (OGT), mouse, endogenous in NMCM cells and MEFs (enzyme, UniProt Q8CGY8 1-1046)
chain: MASSVGNVADSTEPTKRMLSFQGLAELAHREYQAGDFEAAERHCMQLWRQEPDNTGVLLLLSSIHFQCRRLDRSAHFSTLAIKQNPLLAEAYSNLGNVYKERGQLQEAIEHYRHALRLKPDFIDGYINLAAALVAAGDMEGAVQAYVSALQYNPDLYCVRSDLGNLLKALGRLEEAKACYLKAIETQPNFAVAWSNLGCVFNAQGEIWLAIHHFEKAVTLDPNFLDAYINLGNVLKEARIFDRAVAAYLRALSLSPNHAVVHGNLACVYYEQGLIDLAIDTYRRAIELQPHFPDAYCNLANALKEKGSVAEAEDCYNTALRLCPTHADSLNNLANIKREQGNIEEAVRLYRKALEVFPEFAAAHSNLASVLQQQGKLQEALMHYKEAIRISPTFADAYSNMGNTLKEMQDVQGALQCYTRAIQINPAFADAHSNLASIHKDSGNIPEAIASYRTALKLKPDFPDAYCNLAHCLQIVCDWTDYDERMKKLVSIVAEQLEKNRLPSVHPHHSMLYPLSHGFRKAIAERHGNLCLDKINVLHKPPYEHPKDLKLSDGRLRVGYVSSDFGNHPTSHLMQSIPGMHNPDKFEVFCYALSPDDGTNFRVKVMAEANHFIDLSQIPCNGKAADRIHQDGIHILVNMNGYTKGARNELFALRPAPIQAMWLGYPGTSGALFMDYIITDQETSPAEVAEQYSEKLAYMPHTFFIGDHANMFPHLKKKAVIDFKSNGHIYDNRIVLNGIDLKAFLDSLPDVKIVKMKCPDGGDNPDSSNTALNMPVIPMNTIAEAVIEMINRGQIQITINGFSISNGLATTQINNKAATGEEVPRTIIVTTRSQYGLPEDAIVYCNFNQLYKIDPSTLQMWANILKRVPNSVLWLLRFPAVGEPNIQQYAQNMGLPQNRIIFSPVAPKEEHVRRGQLADVCLDTPLCNGHTTGMDVLWAGTPMVTMPGETLASRVAASQLTCLGCLELIAKSRQEYEDIAVKLGTDLEYLKKIRGKVWKQRISSPLFNTKQYTMELERLYLQMWEHYAAGNKPDHMIKPVEVTESA
Take B1: in assay [4], the binding entry is reported as “binds”.

Source of the values: publication doi:10.1101/2025.07.07.663452.
